Test results taken from PubChem BioAssay AID256 (DTP/NCI, 2004).
The list shows only some results of the screen, not a fair sample: it gathers tests that were run many times, whatever their T/C, doses with no T/C, and many T/C values between a quarter and a half above the control. Further doses and runs are listed elsewhere. T/C is the treated group as % of the vehicle group. Some doses have a count of surviving animals in place of a T/C: the source files T/C as zero there, which appears to mark a toxic dose or a test without result, not a measured value. Some survivor counts are full or nearly so, which does not show that the dose was tolerated: survival well below the control is almost never listed, so the zero probably covers shortened survival too. Survivors were counted at the toxicity check, usually on the fifth day, unless a day is given; later deaths do not show. Schedule codes are those of the source, taken here to give the interval after Q, in days (D) or hours (H), and the number of doses after X. Some entries hold several experiments; the results are listed from low to high. Some schedule codes hold Z or #, which are not explained here. Where survival is the endpoint, the PubChem record calls one and a half times the control and up active, and a quarter to a half above the control has no call in these data; cut-offs in other NCI protocols can differ. Some T/C values carry the count of animals alive at the toxicity check (mostly the fifth day); where none is given, no animal had died by that day.

Tested on: CD2F1 mice, L1210 leukemia ip, survival T/C
Assay: NCI In Vivo Anticancer Drug Screen. Data for tumor model L1210 Leukemia (intraperitoneal) in CD2F1 (CDF1) mice
Conditions: higher T/C = longer survival
Procedure, shortened: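 Mice carrying a transplanted tumor received test compound or vehicle alone. The value is the measurement in the treated group divided by that in the vehicle-treated control group.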

[1] = T/C endpoint: median survival time, dose: 50.0 mg/kg/injection, schedule: Q01DX009 (ip), vehicle: saline with Tween-80
[2] = T/C endpoint: median survival time, dose: 400.0 mg/kg/injection, schedule: Q01DX009 (ip), vehicle: saline with Tween-80
[3] = T/C endpoint: mean survival time, dose: 200.0 mg/kg/injection, schedule: Q01DX009 (ip), vehicle: saline with Tween-80
[4] = T/C endpoint: mean survival time, dose: 400.0 mg/kg/injection, schedule: Q01DX001 (ip), vehicle: saline
[5] = T/C endpoint: mean survival time, dose: 100.0 mg/kg/injection, schedule: Q04DX003 (ip), vehicle: saline with Tween-80
[6] = T/C endpoint: mean survival time, dose: 200.0 mg/kg/injection, schedule: Q04DX003 (ip), vehicle: saline with Tween-80
[7] = T/C endpoint: mean survival time, dose: 400.0 mg/kg/injection, schedule: Q04DX003 (ip), vehicle: saline with Tween-80

## CNC(=O)Oc1ccc(S(=O)(=O)c2ccc(OC(=O)NC)cc2)cc1
[1]
  T/C: 125 % of control
T/C endpoint: median survival time, dose: 100.0 mg/kg/injection, schedule: Q01DX009 (ip), vehicle: saline with Tween-80
  T/C: 140 % of control
T/C endpoint: median survival time, dose: 200.0 mg/kg/injection, schedule: Q01DX009 (ip), vehicle: saline with Tween-80
  T/C: 125 and 129 % of control [4 of 5 alive]
T/C endpoint: median survival time, dose: 333.0 mg/kg/injection, schedule: Q01DX009 (ip), vehicle: saline with Tween-80
  survivor count: 4 of 6
T/C endpoint: median survival time, dose: 334.34 mg/kg/injection, schedule: Q01DX005 (ip), vehicle: saline with Tween-80
  survivor count: 0 of 6
[2]
  survivor count: 0 of 6
T/C endpoint: median survival time, dose: 555.56 mg/kg/injection, schedule: Q01DX005 (ip), vehicle: saline with Tween-80
  survivor count: 0 of 6

## COc1ccc(/C=N/NC(=O)CNC(=O)c2ccccc2)cc1
[3]
  survivor count: 6 of 6

## Cn1c(=O)c2c(nc(Br)n2CC(=O)CF)n(C)c1=O
T/C endpoint: mean survival time, dose: 50.0 mg/kg/injection, schedule: Q01DX005 (ip), vehicle: distilled water + Tween-80
  T/C: 125 % of control
T/C endpoint: mean survival time, dose: 400.0 mg/kg/injection, schedule: Q01DX005 (ip), vehicle: distilled water + Tween-80
  survivor count: 2 of 6

## CCCCCCCCCCCC(=O)[O][Pb]([CH2]C)([CH2]C)[CH2]C
T/C endpoint: mean survival time, dose: 12.5 mg/kg/injection, schedule: Q01DX009 (ip), vehicle: saline with Tween-80
  survivor count: 1 of 6

## CCN(CC)CC[n+]1ccc2c(C)c3[nH]c4ccc(O)cc4c3c(C)c2c1
T/C endpoint: mean survival time, dose: 1.56 mg/kg/injection, schedule: Q01DX009 (ip), vehicle: saline
  T/C: 127 % of control
T/C endpoint: mean survival time, dose: 1.56 mg/kg/injection, schedule: Q01DX009 (ip), vehicle: suspension in saline
  T/C: 125 % of control
T/C endpoint: mean survival time, dose: 3.12 mg/kg/injection, schedule: Q01DX009 (ip), vehicle: saline
  T/C: 134 % of control [5 of 6 alive]
T/C endpoint: mean survival time, dose: 3.12 mg/kg/injection, schedule: Q01DX009 (ip), vehicle: suspension in saline
  T/C: 129 % of control
T/C endpoint: mean survival time, dose: 6.25 mg/kg/injection, schedule: Q01DX009 (ip), vehicle: saline
  T/C: 138 % of control
T/C endpoint: mean survival time, dose: 6.25 mg/kg/injection, schedule: Q01DX009 (ip), vehicle: suspension in saline
  T/C: 138 % of control
T/C endpoint: mean survival time, dose: 12.5 mg/kg/injection, schedule: Q01DX009 (ip), vehicle: saline
  T/C: 135 % of control
T/C endpoint: mean survival time, dose: 25.0 mg/kg/injection, schedule: Q01DX009 (ip), vehicle: saline
  T/C: 143 % of control
T/C endpoint: mean survival time, dose: 50.0 mg/kg/injection, schedule: Q01DX009 (ip), vehicle: suspension in saline
  survivor count: 4 of 6

## O=C(O)C[Se]CC(=O)O
[4]
  survivor count: 3 of 6

## ClC1=CCCCC1
T/C endpoint: mean survival time, dose: 200.0 mg/kg/injection, schedule: Q04DX003 (ip), vehicle: acetone
  survivor count: 1 of 6
T/C endpoint: mean survival time, dose: 400.0 mg/kg/injection, schedule: Q04DX003 (ip), vehicle: acetone
  survivor count: 0 of 6

## CCCCn1cnc2c(=S)nc[nH]c21
T/C endpoint: mean survival time, dose: 100.0 mg/kg/injection, schedule: Q01DX009 (ip), vehicle: saline
  T/C: 125 % of control
T/C endpoint: mean survival time, dose: 128.0 mg/kg/injection, schedule: Q01DX009 (ip), vehicle: saline
  T/C: 126 % of control
[1]
  T/C: 149 % of control
[2]
  survivor count: 4 of 6

## CCCCCCCCOC(CN)C(Cl)(Cl)Cl (stereo unspecified)
[5]
  survivor count: 0 of 6
[6]
  survivor count: 1 of 6
[7]
  survivor count: 0 of 6

## CC1(C)C=Cc2ccccc21
[3]
  survivor count: 2 of 6

## CCCCc1c(C)[nH]c(=S)[nH]c1=O
[7]
  survivor count: 6 of 6

## Cn1cnc([N+](=O)[O-])c1S(=O)(=O)NCN1CCOCC1
T/C endpoint: mean survival time, dose: 100.0 mg/kg/injection, schedule: Q01DX009 (ip), vehicle: Klucel (hydroxypropylcellulose) (HPC)
  survivor count: 4 of 6
T/C endpoint: mean survival time, dose: 200.0 mg/kg/injection, schedule: Q01DX009 (ip), vehicle: Klucel (hydroxypropylcellulose) (HPC)
  survivor count: 0 of 6 and 1 of 6
T/C endpoint: mean survival time, dose: 400.0 mg/kg/injection, schedule: Q01DX009 (ip), vehicle: Klucel (hydroxypropylcellulose) (HPC)
  survivor count: 0 of 6

## CC(=O)CC(=O)c1ccccc1.CC(=O)CC(=O)c1ccccc1.CC(=O)CC(=O)c1ccccc1.[Co]
T/C endpoint: mean survival time, dose: 100.0 mg/kg/injection, schedule: Q04DX003 (ip), vehicle: saline
  survivor count: 3 of 6
T/C endpoint: mean survival time, dose: 200.0 mg/kg/injection, schedule: Q04DX003 (ip), vehicle: saline
  survivor count: 1 of 6
T/C endpoint: mean survival time, dose: 300.0 mg/kg/injection, schedule: Q04DX003 (ip), vehicle: saline
  survivor count: 0 of 6

## CCOC(=O)c1ccc(NC(=O)Nc2ccc(Nc3ccccc3)cc2)cc1
[5]
  survivor count: 6 of 6
[6]
  survivor count: 6 of 6
T/C endpoint: mean survival time, dose: 400.0 mg/kg/injection, schedule: Q04DX002 (ip), vehicle: saline with Tween-80
  survivor count: 6 of 6
[7]
  survivor count: 6 of 6

## N#CC(=C1SCS1)[N+](=O)[O-]
T/C endpoint: mean survival time, dose: 6.0 mg/kg/injection, schedule: Q01DX009 (ip), vehicle: saline with Tween-80
  survivor count: 6 of 6
T/C endpoint: mean survival time, dose: 12.0 mg/kg/injection, schedule: Q01DX009 (ip), vehicle: saline with Tween-80
  survivor count: 2 of 6

## Cc1nc(N)nc(N)c1CCCOc1ccc(NC(=O)c2cccc(S(=O)(=O)F)c2)cc1
T/C endpoint: mean survival time, dose: 200.0 mg/kg/injection, schedule: Q#A X018 (ip), vehicle: saline
  survivor count: 3 of 6

## C1=NCCN1
T/C endpoint: mean survival time, dose: 400.0 mg/kg/injection, schedule: Q01DX009 (ip), vehicle: saline
  survivor count: 0 of 6

## CC(C)(C)C1CC=CCC1 (stereo unspecified)
[7]
  survivor count: 0 of 6

## Cc1nc(N)nc(N)c1-c1ccc(Cl)c(Cl)c1
T/C endpoint: mean survival time, dose: 2.0 mg/kg/injection, schedule: Q01DX009 (sc), vehicle: other
  T/C: 128 % of control
T/C endpoint: mean survival time, dose: 3.0 mg/kg/injection, schedule: Q01DX009 (sc), vehicle: other
  T/C: 135 % of control
T/C endpoint: mean survival time, dose: 4.0 mg/kg/injection, schedule: Q01DX009 (ip), vehicle: saline with Tween-80
  T/C: 139 % of control
T/C endpoint: mean survival time, dose: 8.0 mg/kg/injection, schedule: Q01DX009 (ip), vehicle: Klucel (hydroxypropylcellulose) (HPC)
  T/C: 125 % of control [5 of 6 alive]
T/C endpoint: mean survival time, dose: 8.0 mg/kg/injection, schedule: Q01DX009 (ip), vehicle: saline with Tween-80
  T/C: 146 % of control
T/C endpoint: mean survival time, dose: 10.0 mg/kg/injection, schedule: Q02DX005 (ip), vehicle: saline
  survivor count: 2 of 6
T/C endpoint: mean survival time, dose: 16.0 mg/kg/injection, schedule: Q01DX009 (ip), vehicle: saline with Tween-80
  survivor count: 6 of 6
T/C endpoint: mean survival time, dose: 20.0 mg/kg/injection, schedule: Q02DX005 (ip), vehicle: saline
  survivor count: 0 of 6
T/C endpoint: mean survival time, dose: 33.0 mg/kg/injection, schedule: Q04DX003 (ip), vehicle: saline
  T/C: 137 % of control
T/C endpoint: mean survival time, dose: 50.0 mg/kg/injection, schedule: Q04DX003 (ip), vehicle: saline
  T/C: 127 % of control
T/C endpoint: median survival time, dose: 2.5 mg/kg/injection, schedule: Q01DX009 (ip), vehicle: saline
  T/C: 132 % of control

## COc1ccc(/C=C2\SC(=O)NC2=O)cc1
[7]
  survivor count: 0 of 3

## CN(C)c1ccc(C(Cc2ccc(Nc3ccccc3)c3ccccc23)=C2C=CC(=[N+](C)C)C=C2)cc1
T/C endpoint: mean survival time, dose: 50.0 mg/kg/injection, schedule: Q01DX001 (ip), vehicle: saline
  survivor count: 1 of 3
T/C endpoint: mean survival time, dose: 100.0 mg/kg/injection, schedule: Q01DX001 (ip), vehicle: saline with Tween-80
  survivor count: 0 of 3
T/C endpoint: mean survival time, dose: 200.0 mg/kg/injection, schedule: Q01DX001 (ip), vehicle: saline with Tween-80
  survivor count: 1 of 3
T/C endpoint: mean survival time, dose: 400.0 mg/kg/injection, schedule: Q01DX001 (ip), vehicle: saline with Tween-80
  survivor count: 0 of 3

## CN(C)C(=O)OCC#CCOC(=O)N(C)C
T/C endpoint: mean survival time, dose: 400.0 mg/kg/injection, schedule: Q04DX002 (ip), vehicle: saline
  survivor count: 1 of 3

## Nc1cccc(C(=O)O)c1C(=O)O
T/C endpoint: mean survival time, dose: 50.0 mg/kg/injection, schedule: Q01DX009 (ip), vehicle: saline with Tween-80
  survivor count: 6 of 6
T/C endpoint: mean survival time, dose: 100.0 mg/kg/injection, schedule: Q01DX009 (ip), vehicle: saline with Tween-80
  survivor count: 3 of 6 and 5 of 6
[3]
  survivor count: 3 of 6
T/C endpoint: mean survival time, dose: 400.0 mg/kg/injection, schedule: Q01DX009 (ip), vehicle: saline with Tween-80
  survivor count: 0 of 6

## O=S(=O)(O)CS(=O)(=O)O.[Ag]
T/C endpoint: mean survival time, dose: 100.0 mg/kg/injection, schedule: Q01DX001 (ip), vehicle: saline
  survivor count: 1 of 6
T/C endpoint: mean survival time, dose: 200.0 mg/kg/injection, schedule: Q01DX001 (ip), vehicle: saline
  survivor count: 0 of 6
[4]
  survivor count: 1 of 6
